Data from paper doi:10.1101/806968.
No constants are given. Whether binding was seen depends on the method and setting. In cells and extracts the contact can be indirect. Sequences can lack the tags named with a protein.

Molecular target: T1, ME31B-GFP (Drosophila melanogaster) (UniProt P23128)
T1 sequence: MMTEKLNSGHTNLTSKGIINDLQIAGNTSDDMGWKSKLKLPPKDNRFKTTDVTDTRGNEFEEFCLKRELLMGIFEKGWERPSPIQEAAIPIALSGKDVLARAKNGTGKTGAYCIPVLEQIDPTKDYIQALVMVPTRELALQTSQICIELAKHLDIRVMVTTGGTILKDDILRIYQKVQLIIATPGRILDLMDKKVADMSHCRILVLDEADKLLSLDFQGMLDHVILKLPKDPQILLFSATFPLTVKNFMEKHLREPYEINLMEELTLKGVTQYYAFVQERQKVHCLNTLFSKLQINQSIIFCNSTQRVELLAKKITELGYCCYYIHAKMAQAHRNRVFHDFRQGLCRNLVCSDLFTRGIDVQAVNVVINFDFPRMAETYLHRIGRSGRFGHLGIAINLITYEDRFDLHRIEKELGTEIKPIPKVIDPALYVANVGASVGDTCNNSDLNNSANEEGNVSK
Test: co-IP

binding: no binding
Substance: RanBPM, short isoform
